Assay results reported in PMC11119796.
Results are given in words; binding and its absence hold for the method and conditions named. Binding seen in cells or lysates may run through a third protein. A result given as binding can be weak or reduced; the word gives no strength.

Target: T1, ISLR (construct not stated) (UniProt Q6GU68)
T1 sequence: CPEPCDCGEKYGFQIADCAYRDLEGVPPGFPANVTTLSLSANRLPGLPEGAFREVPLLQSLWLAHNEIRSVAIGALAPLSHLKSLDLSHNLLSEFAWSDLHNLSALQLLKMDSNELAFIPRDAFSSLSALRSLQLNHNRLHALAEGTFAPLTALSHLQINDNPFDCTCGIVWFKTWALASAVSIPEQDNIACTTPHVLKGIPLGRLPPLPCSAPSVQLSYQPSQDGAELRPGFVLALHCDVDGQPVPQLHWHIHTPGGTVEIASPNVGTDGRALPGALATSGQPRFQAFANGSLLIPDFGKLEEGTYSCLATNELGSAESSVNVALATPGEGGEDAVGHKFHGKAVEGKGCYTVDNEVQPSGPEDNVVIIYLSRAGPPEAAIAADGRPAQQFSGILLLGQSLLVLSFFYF
Assay: co-IP; co-IP of ISLR to identify interacting metabolic enzymes; cells, construct and way of identification not stated

With Pyruvate kinase (enzyme) as the substance, how does the binding read?
The binding was “binds”.
